Results are given in words; binding and its absence hold for the method and conditions named. Binding seen in cells or lysates may run through a third protein. Some binding calls cover weakened binding; strength is not graded here.
How the values were obtained:
[1] = target: p55γ subunit of PI3K (human (endogenous in MCF7 and MDA-MB-231)) (UniProt Q92569); test: co-IP; competitive co-IP: lysates of stably transfected MCF7 and MDA-MB-231 cells with or without TC2N overexpression, IP with p55γ or ALK antibodies, WB with ALK or p55γ antibodies; normal IgG as negative control
[2] = target: ALK (human (endogenous in MCF7 and MDA-MB-231)) (UniProt Q9UM73); test: co-IP; co-IP and WB from cell lysates (IP lysis buffer, Pierce Co-Immunoprecipitation Kit); antibody used for this IP not told
[3] = target: ALK (human (endogenous in MCF7 and MDA-MB-231)) (UniProt Q9UM73); test: co-IP; competitive co-IP: lysates of stably transfected MCF7 and MDA-MB-231 cells with or without TC2N overexpression, IP with p55γ or ALK antibodies, WB with ALK or p55γ antibodies; normal IgG as negative control

Sequences of proteins named here, by UniProt entry; tags and fusion partners are left off. Residues count along the entry.
UniProt Q9UM73, residues 19-1620: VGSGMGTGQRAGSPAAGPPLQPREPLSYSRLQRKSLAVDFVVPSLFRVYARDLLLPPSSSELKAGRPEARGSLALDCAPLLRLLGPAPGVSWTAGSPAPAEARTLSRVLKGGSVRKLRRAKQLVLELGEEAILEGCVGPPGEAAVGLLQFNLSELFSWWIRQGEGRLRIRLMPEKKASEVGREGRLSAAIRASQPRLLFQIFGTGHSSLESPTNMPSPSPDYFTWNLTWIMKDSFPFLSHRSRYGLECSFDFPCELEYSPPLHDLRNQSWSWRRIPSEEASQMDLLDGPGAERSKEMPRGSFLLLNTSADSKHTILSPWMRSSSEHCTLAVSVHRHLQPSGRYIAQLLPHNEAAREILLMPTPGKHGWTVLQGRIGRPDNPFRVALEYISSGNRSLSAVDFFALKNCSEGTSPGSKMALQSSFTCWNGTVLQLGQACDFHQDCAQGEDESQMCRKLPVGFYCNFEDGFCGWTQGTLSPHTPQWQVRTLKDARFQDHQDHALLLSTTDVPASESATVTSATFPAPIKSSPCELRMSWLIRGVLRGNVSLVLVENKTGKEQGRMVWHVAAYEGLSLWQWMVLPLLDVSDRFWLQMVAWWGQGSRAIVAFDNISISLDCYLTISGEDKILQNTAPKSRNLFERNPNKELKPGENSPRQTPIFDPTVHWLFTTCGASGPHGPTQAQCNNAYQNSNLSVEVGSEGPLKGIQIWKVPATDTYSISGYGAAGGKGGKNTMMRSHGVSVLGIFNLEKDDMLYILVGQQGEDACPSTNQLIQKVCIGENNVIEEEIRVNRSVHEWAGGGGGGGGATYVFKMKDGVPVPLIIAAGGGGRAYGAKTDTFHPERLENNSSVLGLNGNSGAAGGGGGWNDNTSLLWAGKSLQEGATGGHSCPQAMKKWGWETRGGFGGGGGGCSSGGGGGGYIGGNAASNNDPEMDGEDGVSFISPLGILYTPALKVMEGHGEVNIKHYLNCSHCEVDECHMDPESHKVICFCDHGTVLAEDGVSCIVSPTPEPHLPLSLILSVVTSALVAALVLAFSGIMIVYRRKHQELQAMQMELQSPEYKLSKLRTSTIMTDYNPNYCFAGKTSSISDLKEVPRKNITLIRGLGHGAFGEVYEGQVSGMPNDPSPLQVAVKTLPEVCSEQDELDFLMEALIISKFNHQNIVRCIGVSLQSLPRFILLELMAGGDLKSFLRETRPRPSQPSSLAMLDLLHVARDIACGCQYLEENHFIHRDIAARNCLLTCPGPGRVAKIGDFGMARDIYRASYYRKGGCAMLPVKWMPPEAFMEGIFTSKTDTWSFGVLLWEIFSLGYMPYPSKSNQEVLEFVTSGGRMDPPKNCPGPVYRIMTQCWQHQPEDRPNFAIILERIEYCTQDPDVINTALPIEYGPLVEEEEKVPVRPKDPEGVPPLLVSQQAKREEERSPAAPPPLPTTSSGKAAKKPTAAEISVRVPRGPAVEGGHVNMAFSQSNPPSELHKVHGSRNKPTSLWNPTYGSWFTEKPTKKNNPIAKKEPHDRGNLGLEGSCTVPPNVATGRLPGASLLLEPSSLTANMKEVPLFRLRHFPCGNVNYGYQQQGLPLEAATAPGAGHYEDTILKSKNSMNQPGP
UniProt Q8N9U0: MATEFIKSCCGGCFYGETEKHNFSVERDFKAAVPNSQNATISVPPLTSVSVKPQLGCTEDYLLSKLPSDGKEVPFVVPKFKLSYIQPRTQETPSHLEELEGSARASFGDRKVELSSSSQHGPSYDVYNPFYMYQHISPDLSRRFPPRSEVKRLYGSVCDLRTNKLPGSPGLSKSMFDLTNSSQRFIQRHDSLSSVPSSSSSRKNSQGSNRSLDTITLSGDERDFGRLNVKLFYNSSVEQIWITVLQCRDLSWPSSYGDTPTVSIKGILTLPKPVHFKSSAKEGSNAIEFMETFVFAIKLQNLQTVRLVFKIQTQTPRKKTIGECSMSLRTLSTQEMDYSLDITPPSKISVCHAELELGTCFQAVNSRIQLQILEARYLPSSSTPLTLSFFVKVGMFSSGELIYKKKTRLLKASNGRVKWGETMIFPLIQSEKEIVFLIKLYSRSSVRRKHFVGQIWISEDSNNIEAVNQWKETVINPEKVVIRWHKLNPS

ALK (from UniProt Q9UM73 19-1620) (receptor)
binding [1]: binds

TC2N (from UniProt Q8N9U0 1-490)
binding [2]: binds

p55γ subunit of PI3K (from UniProt Q92569 1-461)
binding [3]: binds
